# From the supplement of paper PMC8728848
# This is one part of the list.
# Tests used:
# Test in all cases: glycan array binding signal (z-score within array); higher = stronger binding
# Settings in all cases: glycan notation: IUPAC condensed, linker removed
# [1] = target: Man(a1-2)Man(a1-3)[Man(a1-2)Man(a1-6)]Man
# Procedure, shortened: (§1)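 Glycan array data came from 3228 arrays in the Consortium for Functional Glycomics database, and only arrays with an available protein sequence were kept. Glycan names were put into IUPAC-condensed notation, and columns mapping to the same glycan were averaged. The binding signal is a within-array Z-score, averaged across arrays of one protein sequence run at different concentrations or buffers and across linkers. A negative Z-score can be read as non-binding.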
# [2] = target: Man(a1-2)Man(a1-3)[Man(a1-2)Man(a1-6)]Man(a1-6)[Man(a1-2)Man(a1-2)Man(a1-3)]Man
# Procedure, shortened: as §1
# [3] = target: Man(a1-2)Man(a1-3)[Man(a1-2)Man(a1-6)]Man(a1-6)[Man(a1-2)Man(a1-2)Man(a1-3)]Man(b1-4)GlcNAc(b1-4)GlcNAc
# Procedure, shortened: as §1
# [4] = target: Man(a1-2)Man(a1-3)[Man(a1-6)]Man(a1-6)[Man(a1-2)Man(a1-3)]Man(b1-4)GlcNAc(b1-4)GlcNAc
# Procedure, shortened: as §1
# [5] = target: Man(a1-2)Man(a1-6)[Man(a1-3)]Man(a1-6)[Man(a1-2)Man(a1-2)Man(a1-3)]Man
# Procedure, shortened: as §1
# [6] = target: Man(a1-2)Man(a1-6)[Man(a1-3)]Man(a1-6)[Man(a1-2)Man(a1-2)Man(a1-3)]Man(b1-4)GlcNAc(b1-4)GlcNAc
# Procedure, shortened: as §1
# Man(a1-3)[Man(a1-6)]Man = target: Man(a1-3)[Man(a1-6)]Man
# Procedure, shortened: as §1
# [7] = target: Man(a1-3)[Man(a1-6)]Man(a1-6)[Man(a1-2)Man(a1-3)]Man(b1-4)GlcNAc(b1-4)GlcNAc
# Procedure, shortened: as §1
# [8] = target: Man(a1-3)[Man(a1-6)]Man(a1-6)[Man(a1-3)]Man
# Procedure, shortened: as §1
# [9] = target: Man(a1-3)[Man(a1-6)]Man(a1-6)[Man(a1-3)]Man(b1-4)GlcNAc(b1-4)GlcNAc
# Procedure, shortened: as §1
# [10] = target: Man(a1-3)[Man(a1-6)]Man(b1-4)GlcNAc(b1-4)GlcNAc
# Procedure, shortened: as §1
# [11] = target: Man(a1-3)[Man(a1-6)]Man(b1-4)GlcNAc(b1-4)[Fuc(a1-6)]GlcNAc
# Procedure, shortened: as §1
# Man(a1-6)Man = target: Man(a1-6)Man
# Procedure, shortened: as §1
# Man(b1-4)GlcNAc = target: Man(b1-4)GlcNAc
# Procedure, shortened: as §1
# MurNAc(b1-4)GlcNAc = target: MurNAc(b1-4)GlcNAc
# Procedure, shortened: as §1
# Neu5Ac(a2-3)Gal = target: Neu5Ac(a2-3)Gal
# Procedure, shortened: as §1
# [12] = target: Neu5Ac(a2-3)Gal(b1-3)GalNAc
# Procedure, shortened: as §1
# [13] = target: Neu5Ac(a2-3)Gal(b1-3)GalNAc(b1-3)Gal(a1-4)Gal(b1-4)Glc
# Procedure, shortened: as §1
# [14] = target: Neu5Ac(a2-3)Gal(b1-3)GalNAc(b1-4)Gal(b1-4)Glc
# Procedure, shortened: as §1
# [15] = target: Neu5Ac(a2-3)Gal(b1-3)GalNAc(b1-4)[Neu5Ac(a2-3)]Gal(b1-4)Glc
# Procedure, shortened: as §1
# [16] = target: Neu5Ac(a2-3)Gal(b1-3)GalNAc(b1-4)[Neu5Ac(a2-8)Neu5Ac(a2-3)]Gal(b1-4)Glc
# Procedure, shortened: as §1
# [17] = target: Neu5Ac(a2-3)Gal(b1-3)GalNAc6S
# Procedure, shortened: as §1
# [18] = target: Neu5Ac(a2-3)Gal(b1-3)GlcNAc
# Procedure, shortened: as §1
# [19] = target: Neu5Ac(a2-3)Gal(b1-3)GlcNAc(b1-2)Man
# Procedure, shortened: as §1
# [20] = target: Neu5Ac(a2-3)Gal(b1-3)GlcNAc(b1-2)Man(a1-3)[GlcNAc(b1-4)][Neu5Ac(a2-3)Gal(b1-3)GlcNAc(b1-2)Man(a1-6)]Man(b1-4)GlcNAc(b1-4)GlcNAc
# Procedure, shortened: as §1
# [21] = target: Neu5Ac(a2-3)Gal(b1-3)GlcNAc(b1-2)Man(a1-3)[Neu5Ac(a2-3)Gal(b1-3)GlcNAc(b1-2)Man(a1-6)]Man(b1-4)GlcNAc(b1-4)GlcNAc
# Procedure, shortened: as §1
# [22] = target: Neu5Ac(a2-3)Gal(b1-3)GlcNAc(b1-2)[Neu5Ac(a2-3)Gal(b1-3)GlcNAc(b1-4)]Man(a1-6)[Neu5Ac(a2-3)Gal(b1-3)GlcNAc(b1-2)Man(a1-3)]Man(b1-4)GlcNAc(b1-4)GlcNAc
# Procedure, shortened: as §1
# [23] = target: Neu5Ac(a2-3)Gal(b1-3)GlcNAc(b1-3)Gal(b1-3)GlcNAc
# Procedure, shortened: as §1
# [24] = target: Neu5Ac(a2-3)Gal(b1-3)GlcNAc(b1-3)Gal(b1-4)GlcNAc
# Procedure, shortened: as §1
# [25] = target: Neu5Ac(a2-3)Gal(b1-3)GlcNAc(b1-3)GalNAc
# Procedure, shortened: as §1
# [26] = target: Neu5Ac(a2-3)Gal(b1-3)GlcNAc(b1-6)GalNAc
# Procedure, shortened: as §1
# [27] = target: Neu5Ac(a2-3)Gal(b1-3)GlcNAc6S
# Procedure, shortened: as §1
# [28] = target: Neu5Ac(a2-3)Gal(b1-3)[Fuc(a1-4)]GlcNAc
# Procedure, shortened: as §1
# [29] = target: Neu5Ac(a2-3)Gal(b1-3)[Fuc(a1-4)]GlcNAc(b1-3)Gal(b1-3)[Fuc(a1-4)]GlcNAc
# Procedure, shortened: as §1
# [30] = target: Neu5Ac(a2-3)Gal(b1-3)[Fuc(a1-4)]GlcNAc(b1-3)Gal(b1-4)[Fuc(a1-3)]GlcNAc
# Procedure, shortened: as §1
# [31] = target: Neu5Ac(a2-3)Gal(b1-3)[GlcNAc(b1-6)]GalNAc
# Procedure, shortened: as §1
# [32] = target: Neu5Ac(a2-3)Gal(b1-3)[Neu5Ac(a2-6)]GalNAc
# Procedure, shortened: as §1
# [33] = target: Neu5Ac(a2-3)Gal(b1-3)[Neu5Ac(a2-6)]GlcNAc(b1-3)[Fuc(a1-3)[Gal(b1-4)]GlcNAc(b1-6)]Gal(b1-4)Glc
# Procedure, shortened: as §1
# [34] = target: Neu5Ac(a2-3)Gal(b1-3)]Neu5Ac(a2-3)Gal(b1-4)]GlcNAc
# Procedure, shortened: as §1
# Neu5Ac(a2-3)Gal(b1-4)Glc = target: Neu5Ac(a2-3)Gal(b1-4)Glc
# Procedure, shortened: as §1
# [35] = target: Neu5Ac(a2-3)Gal(b1-4)GlcNAc
# Procedure, shortened: as §1
# [36] = target: Neu5Ac(a2-3)Gal(b1-4)GlcNAc(b1-2)Man
# Procedure, shortened: as §1
# [37] = target: Neu5Ac(a2-3)Gal(b1-4)GlcNAc(b1-2)Man(a1-3)[GlcNAc(b1-4)][Neu5Ac(a2-3)Gal(b1-4)GlcNAc(b1-2)Man(a1-6)]Man(b1-4)GlcNAc(b1-4)GlcNAc
# Procedure, shortened: as §1
# [38] = target: Neu5Ac(a2-3)Gal(b1-4)GlcNAc(b1-2)Man(a1-3)[Neu5Ac(a2-3)Gal(b1-4)GlcNAc(b1-2)Man(a1-6)]Man(b1-4)GlcNAc(b1-4)GlcNAc
# Procedure, shortened: as §1
# [39] = target: Neu5Ac(a2-3)Gal(b1-4)GlcNAc(b1-2)Man(a1-3)[Neu5Ac(a2-3)Gal(b1-4)GlcNAc(b1-2)Man(a1-6)]Man(b1-4)GlcNAc(b1-4)[Fuc(a1-6)]GlcNAc
# Procedure, shortened: as §1
binder,measurement,setting,value
"CBP21 (Serratia marcescens), O83009 (protein) MNKTSRTLLSLGLLSAAMFGVSQQANAHGYVESPASRAYQCKLQLNTQCGSVQYEPQSVEGLKGFPQAGPADGHIASADKSTFFELDQQTPTRWNKLNLKTGPNSFTWKLTARHSTTSWRYFITKPNWDASQPLTRASFDLTPFCQFNDGGAIPAAQVTHQCNIPADRSGSHVILAVWDIADTANAFYQAIDVNLSK",glycan array binding signal (z-score),[1],-1.5
same,glycan array binding signal (z-score),[2],-1.08
same,glycan array binding signal (z-score),[3],2.53
same,glycan array binding signal (z-score),[4],-0.367
same,glycan array binding signal (z-score),[5],-0.856
same,glycan array binding signal (z-score),[6],0.074
same,glycan array binding signal (z-score),Man(a1-3)[Man(a1-6)]Man,-0.35
same,glycan array binding signal (z-score),[7],1.13
same,glycan array binding signal (z-score),[8],-0.45
same,glycan array binding signal (z-score),[9],0.328
same,glycan array binding signal (z-score),[10],-0.38
same,glycan array binding signal (z-score),[11],-0.807
same,glycan array binding signal (z-score),Man(a1-6)Man,-0.664
same,glycan array binding signal (z-score),Man(b1-4)GlcNAc,0.685
same,glycan array binding signal (z-score),MurNAc(b1-4)GlcNAc,0.265
same,glycan array binding signal (z-score),Neu5Ac(a2-3)Gal,0.034
same,glycan array binding signal (z-score),[12],-1.23
same,glycan array binding signal (z-score),[13],1.24
same,glycan array binding signal (z-score),[14],0.117
same,glycan array binding signal (z-score),[15],-0.874
same,glycan array binding signal (z-score),[16],-0.909
same,glycan array binding signal (z-score),[17],1.63
same,glycan array binding signal (z-score),[18],-0.85
same,glycan array binding signal (z-score),[19],0.824
same,glycan array binding signal (z-score),[20],-0.106
same,glycan array binding signal (z-score),[21],-0.241
same,glycan array binding signal (z-score),[22],0.279
same,glycan array binding signal (z-score),[23],0.18
same,glycan array binding signal (z-score),[24],0.174
same,glycan array binding signal (z-score),[25],0.76
same,glycan array binding signal (z-score),[26],0.458
same,glycan array binding signal (z-score),[27],-0.561
same,glycan array binding signal (z-score),[28],-0.089
same,glycan array binding signal (z-score),[29],-0.38
same,glycan array binding signal (z-score),[30],0.252
same,glycan array binding signal (z-score),[31],1.23
same,glycan array binding signal (z-score),[32],-0.61
same,glycan array binding signal (z-score),[33],0.826
same,glycan array binding signal (z-score),[34],1.37
same,glycan array binding signal (z-score),Neu5Ac(a2-3)Gal(b1-4)Glc,-0.718
same,glycan array binding signal (z-score),[35],0.215
same,glycan array binding signal (z-score),[36],1.5
same,glycan array binding signal (z-score),[37],-0.507
same,glycan array binding signal (z-score),[38],-0.395
same,glycan array binding signal (z-score),[39],-0.858

# Quoted at random: 2 entries already listed
binder,measurement,setting,value
"CBP21 (Serratia marcescens), O83009 (protein) MNKTSRTLLSLGLLSAAMFGVSQQANAHGYVESPASRAYQCKLQLNTQCGSVQYEPQSVEGLKGFPQAGPADGHIASADKSTFFELDQQTPTRWNKLNLKTGPNSFTWKLTARHSTTSWRYFITKPNWDASQPLTRASFDLTPFCQFNDGGAIPAAQVTHQCNIPADRSGSHVILAVWDIADTANAFYQAIDVNLSK",glycan array binding signal (z-score),[25],0.76
same,glycan array binding signal (z-score),[10],-0.38
